Results are given in words; binding and its absence hold for the method and conditions named. In cells and extracts the contact can be indirect. Some entries that bind do so weakly or less than the wild type.

Chains of the proteins cited; added tags and fusions are not shown.
UniProt P15531: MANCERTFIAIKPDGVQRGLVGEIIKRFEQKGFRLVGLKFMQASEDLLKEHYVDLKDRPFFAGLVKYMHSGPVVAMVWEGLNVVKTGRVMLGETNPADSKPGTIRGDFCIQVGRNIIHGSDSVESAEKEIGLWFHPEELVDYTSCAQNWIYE

The test deals with FLAG/Nme1 overexpressed in CAL 27 cells (clones K1 and K2) (human) (UniProt P15531). The test can be described thus: co-IP; lysates of stably transfected CAL 27 clones; FLAG-tagged protein precipitated with anti-FLAG M2 affinity gel, blotted with anti-Nme1 or anti-Nme1 and anti-FLAG antibody.

Take “endogenous human Nme1 of CAL 27 cells (from UniProt P15531 1-152)”: the binding entry was “binds”.

Source of the values: paper PMC3078890, “Sponge non-metastatic Group I Nme gene/protein - structure and function is conserved from sponges to humans” (BMC Evolutionary Biology, 2011).
